In the assay the target is GAL4 DNA-BD-SmAREB1 fusion (Salvia miltiorrhiza). In words: two-hybrid; S. cerevisiae AH109 co-transformed with pGADT7 (AD) and pGBKT7 (BD) fusions; serial dilutions spotted on SD/-Trp-Leu and SD/-Leu-Trp-His-Ade, 30°C, 3-5 days; X-β-Gal staining.

These are yes or no findings as the source states them, for the method shown. A result given as binding can be weak or reduced; the word gives no strength.

For the substance “SmSnRK2.3-pGADT7 (from UniProt A0A2U9Q8L8) (enzyme)”, the binding result is on record as “binds”.
“SmSnRK2.6-pGADT7 (from UniProt A0A2U9Q8M1) (enzyme)”: the binding entry is recorded as “binds”.

(Values after publication PMC5552723.)
